Binding data for 1 substance are collected here from paper doi:10.1101/2023.02.03.526778.

By UniProt entry, the sequences of proteins in these tests, tags left out. Residues count along the entry.
UniProt P04114, residues 28-4563: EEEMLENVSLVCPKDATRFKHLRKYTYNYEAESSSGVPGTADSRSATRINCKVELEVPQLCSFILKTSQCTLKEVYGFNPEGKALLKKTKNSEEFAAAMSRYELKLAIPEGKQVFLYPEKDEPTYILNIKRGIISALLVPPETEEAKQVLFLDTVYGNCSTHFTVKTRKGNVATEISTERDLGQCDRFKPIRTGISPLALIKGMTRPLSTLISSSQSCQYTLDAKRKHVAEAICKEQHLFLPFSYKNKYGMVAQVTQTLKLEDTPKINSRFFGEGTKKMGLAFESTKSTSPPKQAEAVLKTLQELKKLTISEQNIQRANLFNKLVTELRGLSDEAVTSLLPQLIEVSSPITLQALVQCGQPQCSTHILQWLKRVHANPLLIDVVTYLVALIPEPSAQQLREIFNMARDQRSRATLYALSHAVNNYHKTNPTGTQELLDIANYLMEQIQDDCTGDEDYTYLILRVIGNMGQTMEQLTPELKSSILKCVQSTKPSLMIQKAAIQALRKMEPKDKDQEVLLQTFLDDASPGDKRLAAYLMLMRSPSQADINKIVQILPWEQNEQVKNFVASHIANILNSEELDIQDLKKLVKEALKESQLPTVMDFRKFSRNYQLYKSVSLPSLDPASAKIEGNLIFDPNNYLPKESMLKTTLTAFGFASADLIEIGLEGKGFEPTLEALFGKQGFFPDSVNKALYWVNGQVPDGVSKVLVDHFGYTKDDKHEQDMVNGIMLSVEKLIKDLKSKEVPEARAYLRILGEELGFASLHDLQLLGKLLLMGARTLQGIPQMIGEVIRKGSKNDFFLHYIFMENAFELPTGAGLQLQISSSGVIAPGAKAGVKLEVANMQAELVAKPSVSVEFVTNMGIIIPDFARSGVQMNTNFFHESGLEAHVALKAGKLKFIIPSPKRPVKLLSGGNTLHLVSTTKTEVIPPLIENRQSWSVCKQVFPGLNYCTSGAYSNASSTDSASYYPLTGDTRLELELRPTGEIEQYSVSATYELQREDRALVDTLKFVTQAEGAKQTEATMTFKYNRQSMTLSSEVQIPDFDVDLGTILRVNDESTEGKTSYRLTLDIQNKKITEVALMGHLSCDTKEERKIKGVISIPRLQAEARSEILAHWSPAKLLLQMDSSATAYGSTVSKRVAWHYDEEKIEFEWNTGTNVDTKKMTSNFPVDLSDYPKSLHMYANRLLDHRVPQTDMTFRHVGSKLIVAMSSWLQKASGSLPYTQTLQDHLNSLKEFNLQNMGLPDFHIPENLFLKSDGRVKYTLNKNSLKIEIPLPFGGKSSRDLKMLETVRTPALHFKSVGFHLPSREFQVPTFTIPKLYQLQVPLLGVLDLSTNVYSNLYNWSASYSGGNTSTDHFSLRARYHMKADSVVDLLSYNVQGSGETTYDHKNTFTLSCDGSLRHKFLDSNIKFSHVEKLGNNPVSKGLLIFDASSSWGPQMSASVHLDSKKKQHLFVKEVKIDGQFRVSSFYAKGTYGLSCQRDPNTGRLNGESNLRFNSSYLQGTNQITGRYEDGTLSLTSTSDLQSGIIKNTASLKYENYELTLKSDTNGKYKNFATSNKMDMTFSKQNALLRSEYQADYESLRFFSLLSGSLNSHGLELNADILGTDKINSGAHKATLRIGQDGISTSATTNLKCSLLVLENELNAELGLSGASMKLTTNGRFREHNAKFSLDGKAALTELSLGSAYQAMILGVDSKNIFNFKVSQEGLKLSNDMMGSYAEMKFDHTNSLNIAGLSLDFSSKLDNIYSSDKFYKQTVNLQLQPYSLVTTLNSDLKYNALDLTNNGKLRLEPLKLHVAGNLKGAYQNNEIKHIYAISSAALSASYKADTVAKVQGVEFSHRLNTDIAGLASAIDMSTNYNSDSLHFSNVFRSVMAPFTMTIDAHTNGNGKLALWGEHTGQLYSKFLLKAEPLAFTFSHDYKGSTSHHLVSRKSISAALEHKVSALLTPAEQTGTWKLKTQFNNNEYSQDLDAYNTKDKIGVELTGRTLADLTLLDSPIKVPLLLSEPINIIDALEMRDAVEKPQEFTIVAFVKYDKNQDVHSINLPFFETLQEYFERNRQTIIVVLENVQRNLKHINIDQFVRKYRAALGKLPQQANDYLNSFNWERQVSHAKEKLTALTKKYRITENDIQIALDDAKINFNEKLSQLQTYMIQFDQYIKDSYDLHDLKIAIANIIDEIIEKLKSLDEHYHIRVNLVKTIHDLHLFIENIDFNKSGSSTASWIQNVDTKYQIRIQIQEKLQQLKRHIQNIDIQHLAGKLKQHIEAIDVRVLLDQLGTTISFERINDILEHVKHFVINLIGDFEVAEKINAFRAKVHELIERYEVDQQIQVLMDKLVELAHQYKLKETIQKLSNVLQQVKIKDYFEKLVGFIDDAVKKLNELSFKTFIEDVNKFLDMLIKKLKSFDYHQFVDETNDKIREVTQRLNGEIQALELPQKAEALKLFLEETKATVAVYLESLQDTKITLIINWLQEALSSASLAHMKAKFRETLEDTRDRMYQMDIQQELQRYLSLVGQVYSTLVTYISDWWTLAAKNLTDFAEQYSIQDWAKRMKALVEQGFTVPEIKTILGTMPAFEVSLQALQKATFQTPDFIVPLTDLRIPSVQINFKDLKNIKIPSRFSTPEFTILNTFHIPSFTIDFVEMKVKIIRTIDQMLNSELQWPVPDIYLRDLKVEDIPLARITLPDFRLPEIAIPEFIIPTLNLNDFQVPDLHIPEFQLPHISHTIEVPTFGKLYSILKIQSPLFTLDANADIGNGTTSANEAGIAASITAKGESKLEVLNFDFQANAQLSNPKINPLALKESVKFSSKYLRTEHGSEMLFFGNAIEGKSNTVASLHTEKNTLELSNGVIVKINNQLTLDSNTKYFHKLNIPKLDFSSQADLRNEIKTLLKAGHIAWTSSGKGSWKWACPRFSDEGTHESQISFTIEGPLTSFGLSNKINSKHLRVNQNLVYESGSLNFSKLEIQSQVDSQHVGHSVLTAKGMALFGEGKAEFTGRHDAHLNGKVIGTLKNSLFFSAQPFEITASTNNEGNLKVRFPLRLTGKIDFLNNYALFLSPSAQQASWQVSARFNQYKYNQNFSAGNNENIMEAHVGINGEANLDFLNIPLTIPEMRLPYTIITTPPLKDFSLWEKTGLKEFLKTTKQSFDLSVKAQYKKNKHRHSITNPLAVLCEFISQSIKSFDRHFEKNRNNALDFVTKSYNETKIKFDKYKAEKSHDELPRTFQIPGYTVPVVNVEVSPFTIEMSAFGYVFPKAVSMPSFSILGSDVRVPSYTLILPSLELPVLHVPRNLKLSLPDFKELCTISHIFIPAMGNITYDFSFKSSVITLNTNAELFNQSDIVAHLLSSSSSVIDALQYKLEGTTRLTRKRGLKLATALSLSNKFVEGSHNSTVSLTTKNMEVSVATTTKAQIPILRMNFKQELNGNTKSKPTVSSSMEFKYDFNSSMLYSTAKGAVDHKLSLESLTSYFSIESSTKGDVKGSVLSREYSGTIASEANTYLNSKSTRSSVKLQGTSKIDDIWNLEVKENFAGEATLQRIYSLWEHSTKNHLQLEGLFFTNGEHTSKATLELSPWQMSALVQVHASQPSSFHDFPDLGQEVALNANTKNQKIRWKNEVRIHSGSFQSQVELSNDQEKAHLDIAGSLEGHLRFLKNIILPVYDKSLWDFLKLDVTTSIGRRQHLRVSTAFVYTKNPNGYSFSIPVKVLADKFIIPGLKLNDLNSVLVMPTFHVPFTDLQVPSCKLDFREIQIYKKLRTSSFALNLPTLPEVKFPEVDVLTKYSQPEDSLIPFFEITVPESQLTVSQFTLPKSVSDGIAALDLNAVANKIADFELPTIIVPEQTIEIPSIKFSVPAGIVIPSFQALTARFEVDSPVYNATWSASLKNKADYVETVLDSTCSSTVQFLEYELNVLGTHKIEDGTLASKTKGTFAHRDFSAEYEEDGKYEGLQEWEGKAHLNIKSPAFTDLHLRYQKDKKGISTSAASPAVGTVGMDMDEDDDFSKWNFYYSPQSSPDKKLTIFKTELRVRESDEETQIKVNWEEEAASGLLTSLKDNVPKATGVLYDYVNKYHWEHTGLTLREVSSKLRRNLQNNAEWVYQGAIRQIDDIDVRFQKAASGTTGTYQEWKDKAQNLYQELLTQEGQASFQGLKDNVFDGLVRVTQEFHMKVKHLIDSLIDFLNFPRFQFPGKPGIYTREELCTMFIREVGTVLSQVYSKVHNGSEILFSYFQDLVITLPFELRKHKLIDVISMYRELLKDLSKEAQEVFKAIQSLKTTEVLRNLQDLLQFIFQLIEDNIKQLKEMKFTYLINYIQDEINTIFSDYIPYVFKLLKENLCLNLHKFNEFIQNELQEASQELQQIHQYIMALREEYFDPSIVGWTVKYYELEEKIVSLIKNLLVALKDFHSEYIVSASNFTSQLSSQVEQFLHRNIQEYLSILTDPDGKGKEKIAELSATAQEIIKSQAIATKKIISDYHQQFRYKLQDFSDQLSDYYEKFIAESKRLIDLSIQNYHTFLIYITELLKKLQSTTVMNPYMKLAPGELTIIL

Results are given in words; binding and its absence hold for the method and conditions named. Some entries that bind do so weakly or less than the wild type.

The assay addresses murine LDLR (mLDLR) expressed by N2A cells (mouse (endogenous in Neuro-2a)) (UniProt P35951). Description: flow cytometry on cells.

For the substance “LDL particles (DiI-LDL) (from UniProt P04114 28-4563) (ligand)”, the binding entry is on record as “binds”.
